Drawing on paper PMC6904616, this text covers binding for 1 substance.

Amino acid sequences for entries named in this document (tags omitted).
UniProt P09936: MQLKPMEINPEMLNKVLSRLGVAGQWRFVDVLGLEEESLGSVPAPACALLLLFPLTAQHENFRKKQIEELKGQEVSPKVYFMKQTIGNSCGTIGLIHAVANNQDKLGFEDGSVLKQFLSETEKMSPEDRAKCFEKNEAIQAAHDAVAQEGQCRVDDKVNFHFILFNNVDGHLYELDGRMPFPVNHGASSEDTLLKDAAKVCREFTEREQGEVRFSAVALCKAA
UniProt P60842: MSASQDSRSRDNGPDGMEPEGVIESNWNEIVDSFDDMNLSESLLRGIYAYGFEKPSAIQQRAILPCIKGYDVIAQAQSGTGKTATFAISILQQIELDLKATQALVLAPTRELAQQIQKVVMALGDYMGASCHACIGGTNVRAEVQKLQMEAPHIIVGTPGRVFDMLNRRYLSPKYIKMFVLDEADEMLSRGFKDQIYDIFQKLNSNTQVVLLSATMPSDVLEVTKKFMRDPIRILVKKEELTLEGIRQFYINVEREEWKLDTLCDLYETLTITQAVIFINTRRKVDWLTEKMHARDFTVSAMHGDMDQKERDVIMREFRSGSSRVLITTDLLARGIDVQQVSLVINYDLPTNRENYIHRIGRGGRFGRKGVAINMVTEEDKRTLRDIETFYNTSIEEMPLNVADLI

Results are given in words; binding and its absence hold for the method and conditions named. Binding seen in cells or lysates may run through a third protein. Some entries that bind do so weakly or less than the wild type.

Assay [1] has as its target UCH-L1 wild type with C-terminal HA tag (UniProt P09936). The experiment in a line: co-IP; immunoprecipitation from KMS11 lysates (0.5% NP40) of BioID2-UCHL1 fusions or C-terminal HA-tagged UCH-L1, blots probed for eIF4A.
The next assay concerns the target BioID2-UCHL1 (wild type) (UniProt P09936). Described as above.

As to “eIF4A (eIF4F complex subunit) (from UniProt P60842 1-406)”, the binding result (in assay [1]; in the assay with BioID2-UCHL1 (wild type)) was “binds” throughout.
